Measured values published in the supplement of paper PMC10849652.
The list shows a part of the results.

Amino acid sequences for entries named in this document (tags omitted). A change or cut given only in a name is not applied to a line headed by its entry.
UniProt Q9Y4G2: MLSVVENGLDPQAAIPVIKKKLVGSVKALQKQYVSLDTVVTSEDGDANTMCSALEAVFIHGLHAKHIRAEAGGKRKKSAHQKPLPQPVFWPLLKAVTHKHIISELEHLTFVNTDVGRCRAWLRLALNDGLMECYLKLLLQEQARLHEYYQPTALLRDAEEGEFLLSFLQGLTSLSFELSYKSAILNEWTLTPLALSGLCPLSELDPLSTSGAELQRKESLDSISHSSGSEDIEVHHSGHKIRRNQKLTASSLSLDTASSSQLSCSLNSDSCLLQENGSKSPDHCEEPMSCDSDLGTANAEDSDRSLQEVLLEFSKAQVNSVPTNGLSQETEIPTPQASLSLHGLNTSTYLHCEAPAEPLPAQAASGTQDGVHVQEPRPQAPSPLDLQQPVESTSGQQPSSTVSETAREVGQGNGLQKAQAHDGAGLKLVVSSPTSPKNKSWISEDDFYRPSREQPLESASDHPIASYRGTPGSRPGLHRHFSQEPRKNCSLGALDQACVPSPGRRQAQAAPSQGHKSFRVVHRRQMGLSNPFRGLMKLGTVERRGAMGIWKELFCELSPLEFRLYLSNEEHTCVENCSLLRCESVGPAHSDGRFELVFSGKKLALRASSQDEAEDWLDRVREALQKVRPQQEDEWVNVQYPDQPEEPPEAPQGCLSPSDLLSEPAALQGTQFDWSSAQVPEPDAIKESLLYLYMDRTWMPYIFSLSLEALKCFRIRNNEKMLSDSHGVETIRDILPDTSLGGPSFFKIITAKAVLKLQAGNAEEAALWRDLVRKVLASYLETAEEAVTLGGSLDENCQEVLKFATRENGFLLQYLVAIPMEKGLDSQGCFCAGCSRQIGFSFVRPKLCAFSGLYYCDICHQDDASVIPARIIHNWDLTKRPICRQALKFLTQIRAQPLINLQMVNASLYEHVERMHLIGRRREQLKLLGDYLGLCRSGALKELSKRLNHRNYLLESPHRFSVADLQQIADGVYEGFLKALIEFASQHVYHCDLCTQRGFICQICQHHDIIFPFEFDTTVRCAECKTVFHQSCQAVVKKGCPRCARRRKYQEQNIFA
UniProt Q15063: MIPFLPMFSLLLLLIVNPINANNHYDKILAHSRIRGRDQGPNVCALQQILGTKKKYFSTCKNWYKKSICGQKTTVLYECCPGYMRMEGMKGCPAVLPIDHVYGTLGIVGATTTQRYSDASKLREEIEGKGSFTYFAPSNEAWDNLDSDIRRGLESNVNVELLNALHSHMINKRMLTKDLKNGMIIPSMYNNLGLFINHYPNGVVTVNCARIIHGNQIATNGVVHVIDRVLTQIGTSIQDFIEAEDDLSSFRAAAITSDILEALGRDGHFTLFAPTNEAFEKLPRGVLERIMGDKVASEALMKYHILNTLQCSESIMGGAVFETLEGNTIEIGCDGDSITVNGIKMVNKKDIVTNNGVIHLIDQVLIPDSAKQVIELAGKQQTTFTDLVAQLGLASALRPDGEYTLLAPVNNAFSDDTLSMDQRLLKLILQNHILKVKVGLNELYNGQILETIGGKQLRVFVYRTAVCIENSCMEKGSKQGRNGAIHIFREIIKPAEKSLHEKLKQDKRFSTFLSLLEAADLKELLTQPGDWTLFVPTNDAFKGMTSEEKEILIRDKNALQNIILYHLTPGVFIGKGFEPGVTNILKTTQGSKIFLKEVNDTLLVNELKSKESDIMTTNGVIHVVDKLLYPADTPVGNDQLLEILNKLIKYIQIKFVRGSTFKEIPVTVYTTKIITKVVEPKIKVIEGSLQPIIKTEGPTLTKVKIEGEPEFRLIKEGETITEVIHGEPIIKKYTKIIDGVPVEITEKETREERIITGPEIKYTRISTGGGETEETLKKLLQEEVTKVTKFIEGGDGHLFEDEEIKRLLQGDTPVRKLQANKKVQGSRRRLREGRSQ
UniProt P54277: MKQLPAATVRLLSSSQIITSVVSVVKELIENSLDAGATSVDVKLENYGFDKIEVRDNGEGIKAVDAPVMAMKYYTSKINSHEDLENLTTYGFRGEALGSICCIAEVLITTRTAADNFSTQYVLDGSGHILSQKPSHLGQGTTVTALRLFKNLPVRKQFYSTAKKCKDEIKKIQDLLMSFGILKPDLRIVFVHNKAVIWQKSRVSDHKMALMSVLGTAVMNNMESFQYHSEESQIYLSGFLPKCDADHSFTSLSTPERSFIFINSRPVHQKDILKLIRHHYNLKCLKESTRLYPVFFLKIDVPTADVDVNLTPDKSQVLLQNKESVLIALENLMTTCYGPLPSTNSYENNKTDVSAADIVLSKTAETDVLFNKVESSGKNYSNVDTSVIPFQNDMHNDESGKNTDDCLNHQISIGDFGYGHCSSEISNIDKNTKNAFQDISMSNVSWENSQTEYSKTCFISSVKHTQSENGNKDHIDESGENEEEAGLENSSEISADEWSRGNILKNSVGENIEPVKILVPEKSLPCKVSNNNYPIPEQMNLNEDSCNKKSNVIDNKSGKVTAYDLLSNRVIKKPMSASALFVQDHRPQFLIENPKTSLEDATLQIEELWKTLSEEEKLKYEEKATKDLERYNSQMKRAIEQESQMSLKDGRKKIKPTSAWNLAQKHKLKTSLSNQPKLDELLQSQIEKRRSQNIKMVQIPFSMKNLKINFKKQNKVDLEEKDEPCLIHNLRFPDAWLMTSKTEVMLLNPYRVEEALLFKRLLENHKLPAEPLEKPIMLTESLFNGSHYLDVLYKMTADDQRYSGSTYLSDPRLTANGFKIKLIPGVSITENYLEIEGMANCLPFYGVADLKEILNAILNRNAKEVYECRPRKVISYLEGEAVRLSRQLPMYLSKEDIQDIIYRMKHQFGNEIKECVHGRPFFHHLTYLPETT
UniProt P41247: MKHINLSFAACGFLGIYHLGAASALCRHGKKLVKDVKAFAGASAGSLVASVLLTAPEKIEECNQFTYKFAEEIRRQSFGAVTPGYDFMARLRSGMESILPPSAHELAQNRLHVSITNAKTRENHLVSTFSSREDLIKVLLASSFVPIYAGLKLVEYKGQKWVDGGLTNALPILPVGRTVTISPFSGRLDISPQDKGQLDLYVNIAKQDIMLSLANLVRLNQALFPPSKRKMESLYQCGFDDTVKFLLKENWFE
UniProt O00469: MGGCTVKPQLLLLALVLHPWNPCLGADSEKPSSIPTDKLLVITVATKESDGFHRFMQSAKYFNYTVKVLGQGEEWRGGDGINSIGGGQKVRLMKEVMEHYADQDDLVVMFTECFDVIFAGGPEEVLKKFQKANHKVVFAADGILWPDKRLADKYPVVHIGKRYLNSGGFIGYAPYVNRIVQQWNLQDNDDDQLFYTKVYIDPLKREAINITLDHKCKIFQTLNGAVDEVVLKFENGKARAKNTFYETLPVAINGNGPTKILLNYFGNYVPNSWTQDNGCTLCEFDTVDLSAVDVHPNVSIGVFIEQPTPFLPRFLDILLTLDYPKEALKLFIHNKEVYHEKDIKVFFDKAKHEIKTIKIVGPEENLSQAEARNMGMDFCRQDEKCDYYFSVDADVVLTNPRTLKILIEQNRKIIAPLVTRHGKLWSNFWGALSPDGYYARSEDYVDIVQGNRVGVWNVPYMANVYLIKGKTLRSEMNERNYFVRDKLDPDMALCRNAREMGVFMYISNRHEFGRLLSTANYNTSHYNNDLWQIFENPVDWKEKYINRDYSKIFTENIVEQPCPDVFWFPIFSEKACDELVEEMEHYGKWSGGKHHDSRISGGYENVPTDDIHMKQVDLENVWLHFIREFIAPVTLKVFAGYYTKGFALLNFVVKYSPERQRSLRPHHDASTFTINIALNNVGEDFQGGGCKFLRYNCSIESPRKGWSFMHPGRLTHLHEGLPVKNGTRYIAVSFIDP
UniProt Q8ND30: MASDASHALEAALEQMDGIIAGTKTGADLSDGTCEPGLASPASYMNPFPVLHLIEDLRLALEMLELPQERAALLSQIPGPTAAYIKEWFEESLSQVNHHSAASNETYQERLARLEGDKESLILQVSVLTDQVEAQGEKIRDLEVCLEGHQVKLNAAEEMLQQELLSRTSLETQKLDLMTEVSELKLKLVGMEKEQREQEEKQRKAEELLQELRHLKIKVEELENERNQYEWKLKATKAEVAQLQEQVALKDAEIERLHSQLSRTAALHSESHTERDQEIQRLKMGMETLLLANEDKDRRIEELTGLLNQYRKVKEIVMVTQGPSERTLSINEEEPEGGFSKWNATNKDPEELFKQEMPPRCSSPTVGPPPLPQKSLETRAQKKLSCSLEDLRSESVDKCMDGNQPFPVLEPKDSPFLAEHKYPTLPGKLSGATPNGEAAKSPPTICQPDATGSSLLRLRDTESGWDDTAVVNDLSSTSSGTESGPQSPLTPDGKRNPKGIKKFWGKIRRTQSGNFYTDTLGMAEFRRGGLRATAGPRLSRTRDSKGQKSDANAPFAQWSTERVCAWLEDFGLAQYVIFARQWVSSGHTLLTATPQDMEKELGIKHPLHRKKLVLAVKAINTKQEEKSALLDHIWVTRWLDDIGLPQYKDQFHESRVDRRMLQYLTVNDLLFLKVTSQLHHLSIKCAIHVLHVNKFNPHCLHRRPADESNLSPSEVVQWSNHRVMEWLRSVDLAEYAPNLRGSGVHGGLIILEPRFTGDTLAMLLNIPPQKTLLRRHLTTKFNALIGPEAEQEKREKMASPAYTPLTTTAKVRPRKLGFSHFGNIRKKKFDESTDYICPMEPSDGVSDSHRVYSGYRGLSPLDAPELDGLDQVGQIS
UniProt P55058, whole entry, looked up: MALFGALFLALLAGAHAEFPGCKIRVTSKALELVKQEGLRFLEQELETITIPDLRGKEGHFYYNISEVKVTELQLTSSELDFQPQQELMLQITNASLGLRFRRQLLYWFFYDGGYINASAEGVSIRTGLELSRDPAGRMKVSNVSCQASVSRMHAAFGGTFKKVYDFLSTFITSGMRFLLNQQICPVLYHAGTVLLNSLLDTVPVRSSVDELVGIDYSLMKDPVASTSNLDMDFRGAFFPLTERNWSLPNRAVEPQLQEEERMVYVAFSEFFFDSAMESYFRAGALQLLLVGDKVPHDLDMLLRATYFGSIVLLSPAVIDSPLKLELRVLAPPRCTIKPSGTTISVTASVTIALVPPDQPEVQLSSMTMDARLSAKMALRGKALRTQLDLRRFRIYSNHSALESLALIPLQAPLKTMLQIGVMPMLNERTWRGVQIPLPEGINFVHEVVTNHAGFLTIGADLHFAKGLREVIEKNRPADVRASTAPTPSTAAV
UniProt Q9UNA4: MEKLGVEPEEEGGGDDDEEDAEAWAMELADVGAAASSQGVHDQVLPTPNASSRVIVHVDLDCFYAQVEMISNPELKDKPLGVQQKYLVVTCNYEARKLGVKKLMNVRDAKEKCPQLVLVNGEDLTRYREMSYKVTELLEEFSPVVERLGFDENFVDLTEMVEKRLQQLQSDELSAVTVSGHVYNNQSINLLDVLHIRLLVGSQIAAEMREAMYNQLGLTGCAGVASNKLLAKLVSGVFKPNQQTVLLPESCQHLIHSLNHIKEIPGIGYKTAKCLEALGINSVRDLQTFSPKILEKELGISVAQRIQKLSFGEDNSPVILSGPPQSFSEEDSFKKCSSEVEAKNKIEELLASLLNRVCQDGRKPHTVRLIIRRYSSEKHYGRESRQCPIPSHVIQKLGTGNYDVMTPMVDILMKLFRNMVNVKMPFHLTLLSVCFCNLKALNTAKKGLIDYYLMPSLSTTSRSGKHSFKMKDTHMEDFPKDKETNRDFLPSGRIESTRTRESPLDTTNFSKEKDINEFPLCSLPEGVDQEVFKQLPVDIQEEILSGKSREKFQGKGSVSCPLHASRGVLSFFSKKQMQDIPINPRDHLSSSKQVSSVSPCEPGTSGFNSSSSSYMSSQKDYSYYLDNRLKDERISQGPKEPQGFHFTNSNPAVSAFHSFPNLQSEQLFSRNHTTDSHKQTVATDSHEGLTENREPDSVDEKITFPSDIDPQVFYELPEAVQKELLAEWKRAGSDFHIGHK
UniProt P62937, whole entry, looked up: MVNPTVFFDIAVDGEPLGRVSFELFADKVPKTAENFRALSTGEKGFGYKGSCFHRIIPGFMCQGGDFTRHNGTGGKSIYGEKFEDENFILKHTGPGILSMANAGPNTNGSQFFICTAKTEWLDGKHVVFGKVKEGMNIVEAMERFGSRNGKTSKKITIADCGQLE
UniProt Q8IY26: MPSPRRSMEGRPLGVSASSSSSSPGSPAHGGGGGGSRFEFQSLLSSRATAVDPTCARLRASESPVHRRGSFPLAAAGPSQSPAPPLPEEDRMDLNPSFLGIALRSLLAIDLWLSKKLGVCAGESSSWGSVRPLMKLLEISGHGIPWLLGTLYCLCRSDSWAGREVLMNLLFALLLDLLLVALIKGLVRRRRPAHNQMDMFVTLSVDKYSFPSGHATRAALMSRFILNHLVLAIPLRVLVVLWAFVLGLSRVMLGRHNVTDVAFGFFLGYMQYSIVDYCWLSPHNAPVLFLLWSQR
UniProt P45877: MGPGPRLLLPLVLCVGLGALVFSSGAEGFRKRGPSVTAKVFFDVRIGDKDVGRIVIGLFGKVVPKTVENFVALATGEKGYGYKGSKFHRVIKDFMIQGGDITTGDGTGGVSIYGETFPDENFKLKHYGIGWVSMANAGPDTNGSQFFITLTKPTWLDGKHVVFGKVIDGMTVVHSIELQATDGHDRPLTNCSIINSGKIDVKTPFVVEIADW

Compound: COC(=O)[C@H](CCSC)NC(=O)C1=C(C=C(C=C1)NC[C@H](CS)N)C2=CC=CC=C2
Test: log2 fold change, soluble protein after heating vs DMSO (PISA); higher = thermal stabilisation; K562 lysate, 10 uM; active = over 0.2 and 3.5 SD of the protein, either way, in both replicates (recomputed)
Outline: (§1)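 To prepare the extract, K562 pellets were dounce-homogenised in PBS pH 7.4 with 1 mM MgCl2, giving crude material at 1 mg/mL protein. This was treated with 10 μM compound for 30 min, then heated in aliquots for 3 min over 48°C-58°C before pooling and addition of NP-40 to 0.5% at 4°C. Centrifugation at 21,000xg for 90 min left soluble protein in the supernatant, which TMTpro 16plex LC-MS/MS quantified with equalised channel sums. Results are log-two fold changes in thermal stability compared with solvent controls, from duplicates.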

log2 fold change, inactive:
PPFIBP1 (UniProt Q86W92) 0.166
POLR2K (UniProt P53803) -0.115
PLEKHM1 (UniProt Q9Y4G2) 0.018
POC1B (UniProt Q8TC44) -0.393
PMM1 (UniProt Q92871) 0.048
POSTN (UniProt Q15063) 0.033
PMS1 (UniProt P54277) 0.022
PNPLA4 (UniProt P41247) 0.125
POC1A (UniProt Q8NBT0) -0.358
PML isoform 11 (UniProt P29590) -0.058
POLR2J (UniProt P52435) 0.013
PLEKHG4 (UniProt Q58EX7) -0.058
PLOD2 isoform 2 (UniProt O00469) -0.73
POMK (UniProt Q9H5K3) -0.095
PLGRKT (UniProt Q9HBL7) -0.06
POLR2F (UniProt U3KPV3) -0.182
PNMA8A (UniProt Q86V59) -0.164
PPFIBP2 (UniProt Q8ND30) 0.051

Compound: COc1cc(Nc2ncc3c(n2)-c2ccc(Cl)cc2C(c2c(F)cccc2OC)=NC3)ccc1C(=O)O [alisertib]
Test: as above
Outline: as §1

log2 fold change, inactive:
PLXNB1 (UniProt O43157) -0.07
POTEKP (UniProt Q9BYX7) -0.119
PLTP (UniProt P55058) -0.061
POLK (UniProt Q9UBT6) 0
PMM1 (UniProt Q92871) 0.025
POLG2 (UniProt J3KRM2) -0.138
POLI (UniProt Q9UNA4) -0.016
PMS1 (UniProt P54277) -0.01
PPIA isoform 2 (UniProt P62937) 0.115
PLXND1 (UniProt Q9Y4D7) 0.046
PLPP6 (UniProt Q8IY26) 0.1
POC1A (UniProt Q8NBT0) 0
POLR2J (UniProt P52435) 0.076
PPIC (UniProt P45877) 0.004
PLEKHG4 (UniProt Q58EX7) 0.124
PLGRKT (UniProt Q9HBL7) -0.056
PNMA8A (UniProt Q86V59) -0.003
PORCN (UniProt Q9H237) -0.479
